This note sets out measurements from article PMC12124498.

Protein sequences, listed by entry. Tags and fused reporters are not part of them. Residues count along the entry.
UniProt P26368: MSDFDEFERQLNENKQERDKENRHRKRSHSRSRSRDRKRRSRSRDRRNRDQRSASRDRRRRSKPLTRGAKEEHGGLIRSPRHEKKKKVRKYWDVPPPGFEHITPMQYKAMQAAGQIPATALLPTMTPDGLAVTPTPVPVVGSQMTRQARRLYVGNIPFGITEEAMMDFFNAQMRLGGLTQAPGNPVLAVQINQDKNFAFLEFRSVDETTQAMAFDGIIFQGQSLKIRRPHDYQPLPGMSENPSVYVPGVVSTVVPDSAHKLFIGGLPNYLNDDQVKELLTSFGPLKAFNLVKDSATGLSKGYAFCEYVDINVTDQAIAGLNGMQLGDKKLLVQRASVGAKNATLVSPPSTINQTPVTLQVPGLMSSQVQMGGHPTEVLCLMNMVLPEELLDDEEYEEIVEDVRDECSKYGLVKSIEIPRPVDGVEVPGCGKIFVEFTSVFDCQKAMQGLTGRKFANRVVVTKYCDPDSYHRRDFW
UniProt Q01844: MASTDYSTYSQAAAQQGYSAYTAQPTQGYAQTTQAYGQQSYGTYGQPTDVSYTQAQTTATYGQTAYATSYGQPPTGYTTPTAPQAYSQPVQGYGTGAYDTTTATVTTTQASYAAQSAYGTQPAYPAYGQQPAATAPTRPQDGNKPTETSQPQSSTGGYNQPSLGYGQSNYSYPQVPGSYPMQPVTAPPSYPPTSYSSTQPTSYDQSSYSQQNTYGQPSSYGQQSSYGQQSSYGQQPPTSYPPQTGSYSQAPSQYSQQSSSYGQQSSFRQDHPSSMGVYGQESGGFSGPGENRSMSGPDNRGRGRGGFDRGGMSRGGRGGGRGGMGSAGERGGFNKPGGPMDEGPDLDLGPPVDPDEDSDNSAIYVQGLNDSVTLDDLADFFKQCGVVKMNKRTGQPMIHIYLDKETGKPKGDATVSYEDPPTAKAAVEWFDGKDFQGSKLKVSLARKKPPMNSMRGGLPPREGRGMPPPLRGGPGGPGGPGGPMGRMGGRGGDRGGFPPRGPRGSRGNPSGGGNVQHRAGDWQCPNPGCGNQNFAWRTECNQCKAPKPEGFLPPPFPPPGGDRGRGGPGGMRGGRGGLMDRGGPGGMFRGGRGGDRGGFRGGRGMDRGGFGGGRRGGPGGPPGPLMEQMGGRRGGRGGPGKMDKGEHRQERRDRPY
UniProt P17096: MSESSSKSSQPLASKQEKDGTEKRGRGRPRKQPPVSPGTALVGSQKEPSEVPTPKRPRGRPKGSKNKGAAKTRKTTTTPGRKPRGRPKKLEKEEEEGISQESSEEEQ
UniProt P60468: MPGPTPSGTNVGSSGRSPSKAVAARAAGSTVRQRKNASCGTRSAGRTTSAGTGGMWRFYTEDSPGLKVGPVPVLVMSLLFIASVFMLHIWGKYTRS
UniProt Q9H2W2: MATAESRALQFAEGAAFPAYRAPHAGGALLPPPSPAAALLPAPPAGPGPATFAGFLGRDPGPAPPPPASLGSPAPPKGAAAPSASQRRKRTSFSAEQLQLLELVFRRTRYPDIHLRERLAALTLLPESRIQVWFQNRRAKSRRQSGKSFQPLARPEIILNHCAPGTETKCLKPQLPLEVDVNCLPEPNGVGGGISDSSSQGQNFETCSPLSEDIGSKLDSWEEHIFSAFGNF
UniProt O75380, residues 29-124: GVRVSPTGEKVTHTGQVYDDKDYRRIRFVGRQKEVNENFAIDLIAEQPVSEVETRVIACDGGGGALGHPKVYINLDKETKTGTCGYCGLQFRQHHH
UniProt Q99081: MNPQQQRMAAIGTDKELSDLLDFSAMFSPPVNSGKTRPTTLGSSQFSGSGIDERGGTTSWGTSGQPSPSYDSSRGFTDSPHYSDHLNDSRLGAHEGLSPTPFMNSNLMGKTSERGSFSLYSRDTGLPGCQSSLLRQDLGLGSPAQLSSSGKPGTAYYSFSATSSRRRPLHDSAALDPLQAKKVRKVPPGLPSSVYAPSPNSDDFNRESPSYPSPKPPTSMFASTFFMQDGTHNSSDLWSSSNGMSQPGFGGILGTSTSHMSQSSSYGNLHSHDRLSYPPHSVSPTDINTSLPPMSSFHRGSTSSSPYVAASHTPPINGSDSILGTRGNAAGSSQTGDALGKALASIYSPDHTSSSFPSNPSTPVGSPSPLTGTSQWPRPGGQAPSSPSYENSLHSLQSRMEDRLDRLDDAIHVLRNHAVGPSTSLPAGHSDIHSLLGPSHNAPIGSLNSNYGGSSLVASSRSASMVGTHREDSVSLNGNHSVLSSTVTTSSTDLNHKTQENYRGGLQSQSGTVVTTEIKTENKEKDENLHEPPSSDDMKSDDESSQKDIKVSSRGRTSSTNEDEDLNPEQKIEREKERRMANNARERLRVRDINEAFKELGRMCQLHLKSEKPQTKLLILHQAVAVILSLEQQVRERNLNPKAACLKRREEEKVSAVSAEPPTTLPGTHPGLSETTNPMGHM
UniProt Q13123: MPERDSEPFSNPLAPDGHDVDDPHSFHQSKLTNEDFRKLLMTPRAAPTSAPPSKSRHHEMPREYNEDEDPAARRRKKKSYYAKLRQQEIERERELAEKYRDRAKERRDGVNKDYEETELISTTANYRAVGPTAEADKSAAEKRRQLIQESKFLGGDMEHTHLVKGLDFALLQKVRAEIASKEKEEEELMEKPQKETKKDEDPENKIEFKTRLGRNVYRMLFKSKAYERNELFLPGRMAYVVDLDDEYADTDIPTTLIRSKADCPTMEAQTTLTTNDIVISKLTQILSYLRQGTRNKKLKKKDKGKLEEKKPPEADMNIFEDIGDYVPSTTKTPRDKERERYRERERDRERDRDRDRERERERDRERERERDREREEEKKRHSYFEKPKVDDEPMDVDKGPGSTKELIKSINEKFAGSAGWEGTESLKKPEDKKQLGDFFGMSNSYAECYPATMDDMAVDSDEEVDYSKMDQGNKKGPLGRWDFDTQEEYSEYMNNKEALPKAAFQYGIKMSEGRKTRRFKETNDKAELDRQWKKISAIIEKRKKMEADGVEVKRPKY
UniProt P17844: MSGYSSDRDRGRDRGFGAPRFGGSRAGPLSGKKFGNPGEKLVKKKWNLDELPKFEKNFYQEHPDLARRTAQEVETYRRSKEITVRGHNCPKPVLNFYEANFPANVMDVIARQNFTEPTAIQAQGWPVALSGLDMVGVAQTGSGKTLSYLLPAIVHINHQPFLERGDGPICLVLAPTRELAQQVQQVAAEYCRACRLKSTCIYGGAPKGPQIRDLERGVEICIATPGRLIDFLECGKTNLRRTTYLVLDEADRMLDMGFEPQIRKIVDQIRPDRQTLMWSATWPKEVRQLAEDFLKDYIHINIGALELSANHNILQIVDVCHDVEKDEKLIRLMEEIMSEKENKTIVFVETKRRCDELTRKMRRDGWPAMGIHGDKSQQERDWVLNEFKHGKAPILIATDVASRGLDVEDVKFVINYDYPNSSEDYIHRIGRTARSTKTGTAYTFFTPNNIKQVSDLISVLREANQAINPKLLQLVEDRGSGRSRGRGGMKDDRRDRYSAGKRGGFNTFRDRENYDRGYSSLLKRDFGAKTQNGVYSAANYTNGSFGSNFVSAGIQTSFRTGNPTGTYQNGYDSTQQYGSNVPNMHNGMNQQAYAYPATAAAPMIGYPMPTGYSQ
UniProt Q9BRT6: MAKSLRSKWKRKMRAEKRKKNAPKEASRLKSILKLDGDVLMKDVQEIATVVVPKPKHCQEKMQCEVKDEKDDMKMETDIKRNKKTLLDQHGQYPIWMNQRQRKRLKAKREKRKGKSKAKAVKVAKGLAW
UniProt O14602: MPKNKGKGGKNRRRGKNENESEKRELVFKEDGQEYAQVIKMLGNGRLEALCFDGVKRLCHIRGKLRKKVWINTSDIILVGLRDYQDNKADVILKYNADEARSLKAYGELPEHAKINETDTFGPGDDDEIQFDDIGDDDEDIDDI
UniProt Q14966: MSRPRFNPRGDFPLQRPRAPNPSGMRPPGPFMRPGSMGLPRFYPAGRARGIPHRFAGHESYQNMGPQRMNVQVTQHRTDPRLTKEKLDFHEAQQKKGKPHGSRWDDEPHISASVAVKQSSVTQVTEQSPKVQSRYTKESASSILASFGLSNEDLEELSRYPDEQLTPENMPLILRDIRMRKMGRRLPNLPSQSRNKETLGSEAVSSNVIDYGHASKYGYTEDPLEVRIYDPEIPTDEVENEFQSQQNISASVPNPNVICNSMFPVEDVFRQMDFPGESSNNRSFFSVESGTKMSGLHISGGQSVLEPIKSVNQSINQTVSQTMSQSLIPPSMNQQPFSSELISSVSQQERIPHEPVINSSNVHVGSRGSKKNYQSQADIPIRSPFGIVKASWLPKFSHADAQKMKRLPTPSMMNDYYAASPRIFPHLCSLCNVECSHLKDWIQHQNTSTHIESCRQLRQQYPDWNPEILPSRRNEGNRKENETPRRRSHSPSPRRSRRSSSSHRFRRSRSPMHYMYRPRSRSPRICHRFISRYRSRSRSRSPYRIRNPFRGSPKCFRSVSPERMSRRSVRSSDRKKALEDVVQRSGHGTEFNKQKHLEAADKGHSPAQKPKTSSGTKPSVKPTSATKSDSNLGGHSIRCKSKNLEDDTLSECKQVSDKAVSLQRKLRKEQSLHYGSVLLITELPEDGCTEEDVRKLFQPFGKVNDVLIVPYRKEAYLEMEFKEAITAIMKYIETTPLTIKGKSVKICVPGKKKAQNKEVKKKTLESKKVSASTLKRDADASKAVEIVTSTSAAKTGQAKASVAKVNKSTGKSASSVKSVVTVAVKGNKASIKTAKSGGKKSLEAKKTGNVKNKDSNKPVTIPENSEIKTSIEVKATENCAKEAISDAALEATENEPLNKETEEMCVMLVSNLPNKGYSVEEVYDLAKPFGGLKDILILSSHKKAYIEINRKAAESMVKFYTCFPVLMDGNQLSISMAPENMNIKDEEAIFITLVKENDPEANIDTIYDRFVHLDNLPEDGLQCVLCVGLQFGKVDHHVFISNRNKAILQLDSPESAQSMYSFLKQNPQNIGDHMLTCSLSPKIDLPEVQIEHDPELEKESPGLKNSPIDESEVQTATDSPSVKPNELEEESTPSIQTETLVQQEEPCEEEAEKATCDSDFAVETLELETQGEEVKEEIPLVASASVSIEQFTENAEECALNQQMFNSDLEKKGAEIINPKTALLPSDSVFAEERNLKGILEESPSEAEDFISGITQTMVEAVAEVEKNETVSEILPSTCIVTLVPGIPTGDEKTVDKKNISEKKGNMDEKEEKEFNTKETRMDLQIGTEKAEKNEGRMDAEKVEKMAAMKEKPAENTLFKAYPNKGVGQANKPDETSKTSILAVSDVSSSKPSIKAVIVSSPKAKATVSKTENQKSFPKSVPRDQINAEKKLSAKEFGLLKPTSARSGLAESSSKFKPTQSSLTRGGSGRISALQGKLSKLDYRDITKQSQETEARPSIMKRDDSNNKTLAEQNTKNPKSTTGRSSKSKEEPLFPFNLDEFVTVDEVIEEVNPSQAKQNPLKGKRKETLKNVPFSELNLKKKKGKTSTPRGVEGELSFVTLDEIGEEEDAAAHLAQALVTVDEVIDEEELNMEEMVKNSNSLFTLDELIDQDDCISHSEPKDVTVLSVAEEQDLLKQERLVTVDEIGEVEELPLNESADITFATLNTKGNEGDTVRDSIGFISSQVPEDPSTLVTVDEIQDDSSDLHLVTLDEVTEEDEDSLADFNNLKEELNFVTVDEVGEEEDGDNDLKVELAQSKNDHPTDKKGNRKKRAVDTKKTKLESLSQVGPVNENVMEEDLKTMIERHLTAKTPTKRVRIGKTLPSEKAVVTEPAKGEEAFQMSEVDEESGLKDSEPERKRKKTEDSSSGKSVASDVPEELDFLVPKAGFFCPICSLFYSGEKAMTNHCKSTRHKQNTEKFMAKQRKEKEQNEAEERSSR
UniProt Q14978: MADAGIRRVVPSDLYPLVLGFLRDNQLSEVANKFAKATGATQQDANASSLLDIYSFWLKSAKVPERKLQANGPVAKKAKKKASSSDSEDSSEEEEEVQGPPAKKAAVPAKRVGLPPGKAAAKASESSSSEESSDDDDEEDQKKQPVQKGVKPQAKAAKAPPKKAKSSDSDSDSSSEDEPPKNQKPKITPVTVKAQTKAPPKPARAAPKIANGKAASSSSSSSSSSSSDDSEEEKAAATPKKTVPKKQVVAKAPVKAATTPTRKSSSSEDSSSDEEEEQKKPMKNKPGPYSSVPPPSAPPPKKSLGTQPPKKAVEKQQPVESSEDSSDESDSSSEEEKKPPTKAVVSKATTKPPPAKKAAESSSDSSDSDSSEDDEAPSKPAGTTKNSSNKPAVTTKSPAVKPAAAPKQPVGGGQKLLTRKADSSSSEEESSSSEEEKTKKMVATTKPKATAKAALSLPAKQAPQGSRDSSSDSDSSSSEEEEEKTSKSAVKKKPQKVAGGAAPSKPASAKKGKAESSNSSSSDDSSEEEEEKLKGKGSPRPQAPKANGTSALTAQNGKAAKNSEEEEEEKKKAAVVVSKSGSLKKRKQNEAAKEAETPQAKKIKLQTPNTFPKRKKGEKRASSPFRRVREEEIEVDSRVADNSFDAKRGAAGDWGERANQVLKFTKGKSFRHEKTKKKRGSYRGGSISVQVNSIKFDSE
UniProt Q9NX14, residues 30-153: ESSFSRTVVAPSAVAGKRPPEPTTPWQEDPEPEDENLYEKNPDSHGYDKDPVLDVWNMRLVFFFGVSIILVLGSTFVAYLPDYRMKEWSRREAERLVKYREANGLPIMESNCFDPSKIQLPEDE

Assay [1] addresses U2AF2-TurboID-HA (human) (UniProt P26368). Briefly: proximity labelling; U2AF2-TurboID-HA induced with doxycycline for 4 h in mesoderm cells differentiated from hiPSC (CHIR99021, 24 h); biotinylated proteins purified on streptavidin magnetic beads, LC-MS with label-free quantification; hits: Log2ΔLFQ >= 2 and p <= 0.05, mesoderm against pluripotent U2AF2-TurboID samples or against GFP-TurboID.

The target is the same in assay [2]. Briefly: proximity labelling; U2AF2-TurboID-HA induced with doxycycline for 4 h in pluripotent hiPSC; biotinylated proteins purified on streptavidin magnetic beads, LC-MS with label-free quantification; hits: Log2ΔLFQ >= 2 and p <= 0.05, pluripotent against mesoderm U2AF2-TurboID samples.

These are yes or no findings as the source states them, for the method shown. Binding seen in cells or lysates may run through a third protein. These calls come from enrichment with a bait or labelling near it, and not all partners need be listed.

As for EWSR1 (from UniProt Q01844 1-656), the binding result with U2AF2-TurboID-HA (human) [1] is “binds”.
The same measure, in the same setting: with HMGA1 (from UniProt P17096 1-107) the entry was “binds”; with TAGLN (from UniProt Q01995 1-201), “binds”; with SEC61B (from UniProt P60468 1-96), “binds”.
On the same count and under the same terms, with MIXL1 (from UniProt Q9H2W2 1-232) the entry was “binds”.
Still for that read-out and setting: with KPNB1 (from UniProt Q14974 1-876) the entry was “binds”; with NASP (from UniProt P49321 1-788), “binds”.
As to U2SURP (from UniProt O15042 1-1029), in the assay with U2AF2-TurboID-HA (human) [1], the binding entry is listed as “binds”.
Same read-out and setting: with NDUFS6 (from UniProt O75380 29-124) the entry was “binds”; with IPO5 (from UniProt O00410 1-1097), “binds”.
The same measure, in the same setting: with TCF12 (from UniProt Q99081 1-682) the entry was “binds”; with IK (from UniProt Q13123 1-557), “binds”; with DDX5 (from UniProt P17844 1-614), “binds”.
On the same count and under the same terms, with COL4A1 (from UniProt P02462) the entry was “binds”; with LLPH (from UniProt Q9BRT6 1-129), “binds”; with EIF1AY (from UniProt O14602 1-144), “binds”.
As for CKB (from UniProt P12277 1-381), the binding entry with U2AF2-TurboID-HA (human) [1] was “binds”.
With ZNF638 (from UniProt Q14966 1-1978), the binding result with U2AF2-TurboID-HA (human) [1] is on record as “binds”.
On the same count and under the same terms, with SON (from UniProt P18583 1-2426) the entry was “binds”; with NOLC1 (from UniProt Q14978 1-699), “binds”; with FUBP1 (from UniProt Q96AE4 1-644), “binds”.
Still for that read-out and setting: with NDUFB11 (from UniProt Q9NX14 30-153) the entry was “binds”; with PRPF40A (from UniProt O75400 1-957), “binds”.

B1: TBCA (protein, UniProt O75347 1-108)
chain: MADPRVRQIKIKTGVVKRLVKEKVMYEKEAKQQEEKIEKMRAEDGENYDIKKQAEILQESRMMIPDCQRRLEAAYLDLQRILENEKDLEEAEEYKEARLVLDSVKLEA
With B1, the binding entry with U2AF2-TurboID-HA (human) [1] was “binds”.

B2: SARNP (protein, UniProt P82979 1-210)
chain: MATETVELHKLKLAELKQECLARGLETKGIKQDLIHRLQAYLEEHAEEEANEEDVLGDETEEEETKPIELPVKEEEPPEKTVDVAAEKKVVKITSEIPQTERMQKRAERFNVPVSLESKKAARAARFGISSVPTKGLSSDNKPMVNLDKLKERAQRFGLNVSSISRKSEDDEKLKKRKERFGIVTSSAGTGTTEDTEAKKRKRAERFGIA
Consider B2, for which the binding result with U2AF2-TurboID-HA (human) [1] is reported as “binds”.

B3: PRDX2 (protein, UniProt P32119 1-198)
chain: MASGNARIGKPAPDFKATAVVDGAFKEVKLSDYKGKYVVLFFYPLDFTFVCPTEIIAFSNRAEDFRKLGCEVLGVSVDSQFTHLAWINTPRKEGGLGPLNIPLLADVTRRLSEDYGVLKTDEGIAYRGLFIIDGKGVLRQITVNDLPVGRSVDEALRLVQAFQYTDEHGEVCPAGWKPGSDTIKPNVDDSKEYFSKHN
For the molecule B3, the binding result with U2AF2-TurboID-HA (human) [2] is listed as “binds”.

B4: SEPT7 (protein, UniProt Q16181 1-437)
chain: MSVSARSAAAEERSVNSSTMVAQQKNLEGYVGFANLPNQVYRKSVKRGFEFTLMVVGESGLGKSTLINSLFLTDLYSPEYPGPSHRIKKTVQVEQSKVLIKEGGVQLLLTIVDTPGFGDAVDNSNCWQPVIDYIDSKFEDYLNAESRVNRRQMPDNRVQCCLYFIAPSGHGLKPLDIEFMKRLHEKVNIIPLIAKADTLTPEECQQFKKQIMKEIQEHKIKIYEFPETDDEEENKLVKKIKDRLPLAVVGSNTIIEVNGKRVRGRQYPWGVAEVENGEHCDFTILRNMLIRTHMQDLKDVTNNVHYENYRSRKLAAVTYNGVDNNKNKGQLTKSPLAQMEEERREHVAKMKKMEMEMEQVFEMKVKEKVQKLKDSEAELQRRHEQMKKNLEAQHKELEEKRRQFEDEKANWEAQQRILEQQNSSRTLEKNKKKGKIF
As for B4, the binding result in the assay with U2AF2-TurboID-HA (human) [2] is listed as “binds”.

B5: TXNL1 (protein, UniProt O43396 1-289)
chain: MVGVKPVGSDPDFQPELSGAGSRLAVVKFTMRGCGPCLRIAPAFSSMSNKYPQAVFLEVDVHQCQGTAATNNISATPTFLFFRNKVRIDQYQGADAVGLEEKIKQHLENDPGSNEDTDIPKGYMDLMPFINKAGCECLNESDEHGFDNCLRKDTTFLESDCDEQLLITVAFNQPVKLYSMKFQGPDNGQGPKYVKIFINLPRSMDFEEAERSEPTQALELTEDDIKEDGIVPLRYVKFQNVNSVTIFVQSNQGEEETTRISYFTFIGTPVQATNMNDFKRVVGKKGESH
Consider B5, for which, in the assay with U2AF2-TurboID-HA (human) [1], the binding entry was “binds”.

B6: SMIM20 (protein, UniProt Q8N5G0 1-67)
chain: MSRNLRTALIFGGFISLIGAAFYPIYFRPLMRLEEYKKEQAINRAGIVQEDVQPPGLKVWSDPFGRK
For B6, in the assay with U2AF2-TurboID-HA (human) [1], the binding entry is reported as “binds”.

B7: UBL5 (protein, UniProt Q9BZL1 1-73)
chain: MIEVVCNDRLGKKVRVKCNTDDTIGDLKKLIAAQTGTRWNKIVLKKWYTIFKDHVSLGDYEIHDGMNLELYYQ
For the molecule B7, the binding result in the assay with U2AF2-TurboID-HA (human) [1] was “binds”.

B8: CCAR1 (protein, UniProt Q8IX12 1-1150)
chain: MAQFGGQKNPPWATQFTATAVSQPAALGVQQPSLLGASPTIYTQQTALAAAGLTTQTPANYQLTQTAALQQQAAAAAAALQQQYSQPQQALYSVQQQLQQPQQTLLTQPAVALPTSLSLSTPQPTAQITVSYPTPRSSQQQTQPQKQRVFTGVVTKLHDTFGFVDEDVFFQLSAVKGKTPQVGDRVLVEATYNPNMPFKWNAQRIQTLPNQNQSQTQPLLKTPPAVLQPIAPQTTFGVQTQPQPQSLLQAQISAASITPLLQTQPQPLLQQPQQKAGLLQPPVRIVSQPQPARRLDPPSRFSGRNDRGDQVPNRKDDRSRERERERRRSRERSPQRKRSRERSPRRERERSPRRVRRVVPRYTVQFSKFSLDCPSCDMMELRRRYQNLYIPSDFFDAQFTWVDAFPLSRPFQLGNYCNFYVMHREVESLEKNMAILDPPDADHLYSAKVMLMASPSMEDLYHKSCALAEDPQELRDGFQHPARLVKFLVGMKGKDEAMAIGGHWSPSLDGPDPEKDPSVLIKTAIRCCKALTGIDLSVCTQWYRFAEIRYHRPEETHKGRTVPAHVETVVLFFPDVWHCLPTRSEWETLSRGYKQQLVEKLQGERKEADGEQDEEEKDDGEAKEISTPTHWSKLDPKTMKVNDLRKELESRALSSKGLKSQLIARLTKQLKVEEQKEEQKELEKSEKEEDEDDDRKSEDDKEEEERKRQEEIERQRRERRYILPDEPAIIVHPNWAAKSGKFDCSIMSLSVLLDYRLEDNKEHSFEVSLFAELFNEMLQRDFGVRIYKSLLSLPEKEDKKEKDKKSKKDERKDKKEERDDETDEPKPKRRKSGDDKDKKEDRDERKKEDKRKDDSKDDDETEEDNNQDEYDPMEAEEAEDEEDDRDEEEMTKRDDKRDINRYCKERPSKDKEKEKTQMITINRDLLMAFVYFDQSHCGYLLEKDLEEILYTLGLHLSRAQVKKLLNKVVLRESCFYRKLTDTSKDEENHEESESLQEDMLGNRLLLPTPTVKQESKDVEENVGLIVYNGAMVDVGSLLQKLEKSEKVRAEVEQKLQLLEEKTDEDEKTILNLENSNKSLSGELREVKKDLSQLQENLKISENMNLQFENQMNKTIRNLSTVMDEIHTVLKKDNVKNEDKDQKSKENGASV
In the case of B8, the binding entry with U2AF2-TurboID-HA (human) [1] is recorded as “binds”.

B9: TECR (protein, UniProt Q9NZ01 1-308)
chain: MKHYEVEILDAKTREKLCFLDKVEPHATIAEIKNLFTKTHPQWYPARQSLRLDPKGKSLKDEDVLQKLPVGTTATLYFRDLGAQISWVTVFLTEYAGPLFIYLLFYFRVPFIYGHKYDFTSSRHTVVHLACICHSFHYIKRLLETLFVHRFSHGTMPLRNIFKNCTYYWGFAAWMAYYINHPLYTPPTYGAQQVKLALAIFVICQLGNFSIHMALRDLRPAGSKTRKIPYPTKNPFTWLFLLVSCPNYTYEVGSWIGFAIMTQCLPVALFSLVGFTQMTIWAKGKHRSYLKEFRDYPPLRMPIIPFLL
With B9, the binding entry with U2AF2-TurboID-HA (human) [2] is given as “binds”.

B10: YWHAG (protein, UniProt P61981 1-247)
chain: MVDREQLVQKARLAEQAERYDDMAAAMKNVTELNEPLSNEERNLLSVAYKNVVGARRSSWRVISSIEQKTSADGNEKKIEMVRAYREKIEKELEAVCQDVLSLLDNYLIKNCSETQYESKVFYLKMKGDYYRYLAEVATGEKRATVVESSEKAYSEAHEISKEHMQPTHPIRLGLALNYSVFYYEIQNAPEQACHLAKTAFDDAIAELDTLNEDSYKDSTLIMQLLRDNLTLWTSDQQDDDGGEGNN
Consider B10, for which the binding result with U2AF2-TurboID-HA (human) [2] is recorded as “binds”.

B11: UGP2 (protein, UniProt Q16851 1-508)
chain: MSRFVQDLSKAMSQDGASQFQEVIRQELELSVKKELEKILTTASSHEFEHTKKDLDGFRKLFHRFLQEKGPSVDWGKIQRPPEDSIQPYEKIKARGLPDNISSVLNKLVVVKLNGGLGTSMGCKGPKSLIGVRNENTFLDLTVQQIEHLNKTYNTDVPLVLMNSFNTDEDTKKILQKYNHCRVKIYTFNQSRYPRINKESLLPVAKDVSYSGENTEAWYPPGHGDIYASFYNSGLLDTFIGEGKEYIFVSNIDNLGATVDLYILNHLMNPPNGKRCEFVMEVTNKTRADVKGGTLTQYEGKLRLVEIAQVPKAHVDEFKSVSKFKIFNTNNLWISLAAVKRLQEQNAIDMEIIVNAKTLDGGLNVIQLETAVGAAIKSFENSLGINVPRSRFLPVKTTSDLLLVMSNLYSLNAGSLTMSEKREFPTVPLVKLGSSFTKVQDYLRRFESIPDMLELDHLTVSGDVTFGKNVSLKGTVIIIANHGDRIDIPPGAVLENKIVSGNLRILDH
On to B11, for which, in the assay with U2AF2-TurboID-HA (human) [2], the binding entry is listed as “binds”.
